The source of these data is US20180237831A1.

The assay concerns the target T1, chromobox protein 8 (CBX8) (UniProt Q9HC52).
T1 sequence (looked up): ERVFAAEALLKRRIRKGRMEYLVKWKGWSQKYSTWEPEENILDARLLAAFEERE
Description: crosslinking competition: 5 mM SK(me3)LAF peptide against CBX peptide-ssDNA on CBX8, SDS-PAGE.

These are yes or no findings as the source states them, for the method shown. Some binding calls cover weakened binding; strength is not graded here.

Consider SKLAF (K(me3): trimethyl-lysine at position 2) [SK(me3)LAF peptide], for which the binding entry was “binds”.
